In article PMC11009388, “Insights into the molecular mechanism of yellow cuticle coloration by a chitin-binding carotenoprotein in gregarious locusts” (Communications Biology, 2024):
Results are given in words; binding and its absence hold for the method and conditions named. Some results given as binding are weak or reduced against the parent protein; the word gives no strength.

Molecular target: human 14-3-3 protein isoform γ (human) (UniProt P61981)
Assay: cross-linking; glutaraldehyde 0.23%, 15 min at 30 °C, 20 mM HEPES pH 7.5, 150 mM NaCl; analysed by SDS-PAGE; both purified

binding: binds
B1: human 14-3-3 protein isoform γ (protein, UniProt P61981 1-247)
chain: MVDREQLVQKARLAEQAERYDDMAAAMKNVTELNEPLSNEERNLLSVAYKNVVGARRSSWRVISSIEQKTSADGNEKKIEMVRAYREKIEKELEAVCQDVLSLLDNYLIKNCSETQYESKVFYLKMKGDYYRYLAEVATGEKRATVVESSEKAYSEAHEISKEHMQPTHPIRLGLALNYSVFYYEIQNAPEQACHLAKTAFDDAIAELDTLNEDSYKDSTLIMQLLRDNLTLWTSDQQDDDGGEGNN
